Measurements: publication PMC8063737 (The Journal of Biological Chemistry, 2021)
Where two headings read alike, the source gives them in different places.

Biological target: T1, pyrene-labeled F-actin (PFA) (Oryctolagus cuniculus, UniProt P68135)
T1 construct: Rabbit skeletal F-actin was prepared as described previously from acetone powder; from tissue; host or cells: rabbit skeletal muscle (acetone powder)
Experiment: Compound binding to pyrene-labeled F-actin, steady-state fluorescence dose response
Parameters: species or system rabbit
Conditions: 2 μM PFA

[1] = no MgATP, fits to the Hill equation, read-out: apparent dissociation equilibrium constant, Kd, of compound binding to PFA

| Compound | Kd [1] [µM] | Kd (200-500 μM MgATP, read-out: Kd of compound binding to PFA in the presence of MgATP) [µM] |
| --- | --- | --- |
| CSc1ccc2c(c1)N(CCC1CCCCN1C)c1ccccc1S2 (stereo not drawn) [Thi] | 40 ± 10 | – |
| OCCN1CCN(CCCN2c3ccccc3Sc3ccc(C(F)(F)F)cc32)CC1 [Flp] | 16.8 ± 2.8 | 25.8 ± 4.2 |
